No constants are given. Whether binding was seen depends on the method and setting. Binding seen in cells or lysates may run through a third protein. A yes stands for co-enrichment or nearness to the bait. Other partners may have been found.

By UniProt entry, the sequences of proteins in these tests, tags left out.
UniProt A0R0B3: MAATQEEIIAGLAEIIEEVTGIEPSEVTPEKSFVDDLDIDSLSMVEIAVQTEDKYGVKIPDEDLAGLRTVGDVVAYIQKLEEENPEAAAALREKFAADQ

The assay deals with Mycobacterium smegmatis mycobacterial membrane protein large 5 (MmpL5) transporter (M. smegmatis) (UniProt A0QS80). Briefly: affinity purification with mass spectrometry; C-terminally His-tagged MmpL5 overproduced in M. smegmatis MC2-155, extracted with 1% LMNG, purified by Ni2+ affinity and Superdex 200; endogenous AcpM found in the sample by proteomics.

Turning to “Mycobacterium smegmatis meromycolate extension acyl carrier protein M (AcpM) (from UniProt A0R0B3 1-99)”, the binding result was “binds”.
